These are yes or no findings as the source states them, for the method shown. In cells and extracts the contact can be indirect. A yes stands for co-enrichment or nearness to the bait. Other partners may have been found.
Legend:
HuR-GST = HuR-GST (UniProt Q15717); test: affinity purification with mass spectrometry; HuR-GST pulldown and iTRAQ of phosphopeptides, resting and ICAM-1-stimulated cells; no methods given
[1] = molecular target: Hu protein R (HuR RNA binding protein) (human (endogenous in Jurkat and primary human T cells)) (UniProt Q15717); test: affinity purification with mass spectrometry; HuR immunoprecipitate from Jurkat T cell lysates (anti-HuR antibody; isotype control MOPC-21), SDS-PAGE, gel slices by molecular weight range, trypsin digest, LC-MS/MS, Mascot search

The chains behind the UniProt entries cited, without tags or fusion partners. Where a name states a change or a piece, a line headed by the entry shows the natural chain unless it says otherwise. A line that says so, or that is headed by a name, gives the form on record, which may keep a tag or linker.
UniProt P31943: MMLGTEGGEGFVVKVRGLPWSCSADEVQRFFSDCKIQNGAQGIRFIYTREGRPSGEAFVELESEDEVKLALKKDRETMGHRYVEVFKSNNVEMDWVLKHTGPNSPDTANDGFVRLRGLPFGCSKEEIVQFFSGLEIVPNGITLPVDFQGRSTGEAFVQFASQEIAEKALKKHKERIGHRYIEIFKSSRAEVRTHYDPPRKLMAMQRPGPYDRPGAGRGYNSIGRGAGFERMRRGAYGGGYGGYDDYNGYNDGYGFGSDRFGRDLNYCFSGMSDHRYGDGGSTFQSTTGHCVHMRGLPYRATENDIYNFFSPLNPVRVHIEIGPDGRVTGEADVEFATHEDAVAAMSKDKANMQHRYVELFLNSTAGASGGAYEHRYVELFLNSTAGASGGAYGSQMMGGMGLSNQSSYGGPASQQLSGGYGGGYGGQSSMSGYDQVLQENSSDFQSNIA
RNA-binding protein Raly isoform 2 (Q9UKM9-2, form named): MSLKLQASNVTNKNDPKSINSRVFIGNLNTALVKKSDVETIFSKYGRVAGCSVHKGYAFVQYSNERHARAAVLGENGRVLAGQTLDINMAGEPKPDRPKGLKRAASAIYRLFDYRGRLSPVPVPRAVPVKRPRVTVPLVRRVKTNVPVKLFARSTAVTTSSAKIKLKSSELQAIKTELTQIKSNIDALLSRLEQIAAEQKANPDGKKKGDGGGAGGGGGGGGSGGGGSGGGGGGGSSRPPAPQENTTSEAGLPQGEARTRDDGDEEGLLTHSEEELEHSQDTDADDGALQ
UniProt P68371: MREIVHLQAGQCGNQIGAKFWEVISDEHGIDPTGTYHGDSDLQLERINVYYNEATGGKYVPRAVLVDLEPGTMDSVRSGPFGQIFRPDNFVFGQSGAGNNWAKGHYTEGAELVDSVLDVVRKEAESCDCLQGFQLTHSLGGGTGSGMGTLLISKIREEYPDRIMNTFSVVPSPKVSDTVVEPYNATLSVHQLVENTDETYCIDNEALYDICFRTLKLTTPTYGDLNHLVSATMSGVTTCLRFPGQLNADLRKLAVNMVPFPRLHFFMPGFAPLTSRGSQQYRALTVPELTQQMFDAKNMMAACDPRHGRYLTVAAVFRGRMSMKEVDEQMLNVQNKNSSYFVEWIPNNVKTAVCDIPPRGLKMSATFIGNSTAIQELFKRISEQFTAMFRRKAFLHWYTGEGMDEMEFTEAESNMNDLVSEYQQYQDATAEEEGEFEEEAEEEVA

binding (HuR-GST) | binding [1] | Substance
binds | – | heterogeneous nuclear ribonucleoprotein H1 (from UniProt P31943 1-449)
binds | – | heterogeneous nuclear ribonucleoprotein K (from UniProt P61978 1-463)
– | binds | RNA-binding protein Raly isoform 2 (from UniProt Q9UKM9-2 1-290)
– | binds | tubulin, beta 2C (from UniProt P68371 1-445)
